{"source": "patent US12569503B2", "about": "“Methods and compositions for substituted axially-chiral cannabinol analogs” (University of Florida Research Foundation, Inc., priority 2019, dated 2026)", "tested_on": "C57bl/6j mice", "assay": "Reduction of body temperature (hypothermia)", "details": "ratio of ED50 values; for Potency Ratio (Temp./Allodynia): Table 1; for Potency Ratio (Temp/Allodynia): Table 4"}
{"compound": "10-methyl-CBN [ax-CBN]", "values": [{"measurement": "Potency Ratio (Temp./Allodynia)", "value": 1.9}, {"measurement": "Potency Ratio (Temp/Allodynia)", "value": 2.01}]}
{"compound": "CCCCCc1cc(O)c2c(c1)OC(C)(C)[C@@H]1CCC(C)=C[C@@H]21", "note": "[THC, (−)-trans-Δ^9-tetrahydrocannabinol]", "values": [{"measurement": "Potency Ratio (Temp./Allodynia)", "value": 0.7}, {"measurement": "Potency Ratio (Temp/Allodynia)", "value": 0.58}]}
